According to PMC10941358:
No constants are given. Whether binding was seen depends on the method and setting. In cells and extracts the contact can be indirect. These calls come from enrichment with a bait or labelling near it, and not all partners need be listed.

Biological target: SISTER OF FCA (SSF)-GFP (Arabidopsis thaliana)
Test: affinity purification with mass spectrometry; immunoprecipitation with GFP antibody from ssf-2 proSSF:SSF-GFP transgenic plants, then mass spectrometry; Col-0 as control

B1: Protein arginine methyltransferase 5 (PRMT5, SKB1), endogenous (protein, UniProt Q8GWT4 1-642)
chain: MPLGERGGWERTESRYCGVETDFSNDVTHLLNFNISTGGFDYVLAPLVDPSYRPSLVEGNGVDTQVLPVCGSDLVLSPSQWSSHVVGKISSWIDLDSEDEVLRMDSETTLKQEIAWATHLSLQACLLPTPKGKSCANYARCVNQILQGLTTLQLWLRVPLVKSEGDSMDDTSEGLNDSWELWNSFRLLCEHDSKLSVALDVLSTLPSETSLGRWMGESVRAAILSTDAFLTNARGYPCLSKRHQKLIAGFFDHAAQVVICGKPVHNLQKPLDSSSEGTEKNPLRIYLDYVAYLFQKMESLSEQERIELGYRDFLQAPLQPLMDNLEAQTYETFERDSVKYIQYQRAVEKALVDRVPDEKASELTTVLMVVGAGRGPLVRASLQAAEETDRKLKVYAVEKNPNAVVTLHNLVKMEGWEDVVTIISCDMRFWNAPEQADILVSELLGSFGDNELSPECLDGAQRFLKPDGISIPSSYTSFIQPITASKLYNDVKAHKDLAHFETAYVVKLHSVAKLAPSQSVFTFTHPNFSTKVNNQRYKKLQFSLPSDAGSALVHGFAGYFDSVLYKDVHLGIEPTTATPNMFSWFPIFFPLRKPVEVHPDTPLEVHFWRCCGSSKVWYEWSVSSPTPSPMHNTNGRSYWVGL
binding: binds
